These are yes or no findings as the source states them, for the method shown. Binding seen in cells or lysates may run through a third protein. Some entries that bind do so weakly or less than the wild type.
Key:
[1] = target: GFP-IQSEC1 v2 (human) (UniProt Q6DN90); test: co-IP; GFP-Trap Kit (Chromotek) on lysates of cells expressing GFP, GFP-IQSEC1 v2 or v4; western blot with anti-Met and anti-LRP1
[2] = target: Met (human (endogenous in PC3)) (UniProt P08581); test: co-IP; 1 mg cell lysate immunoprecipitated with anti-Met antibody overnight at 4 C, anti-mouse agarose, immunoblot; compared at different IQSEC1 expression levels

The chains behind the UniProt entries cited, without tags or fusion partners. Residues count along the entry.
UniProt P08581, residues 25-1390: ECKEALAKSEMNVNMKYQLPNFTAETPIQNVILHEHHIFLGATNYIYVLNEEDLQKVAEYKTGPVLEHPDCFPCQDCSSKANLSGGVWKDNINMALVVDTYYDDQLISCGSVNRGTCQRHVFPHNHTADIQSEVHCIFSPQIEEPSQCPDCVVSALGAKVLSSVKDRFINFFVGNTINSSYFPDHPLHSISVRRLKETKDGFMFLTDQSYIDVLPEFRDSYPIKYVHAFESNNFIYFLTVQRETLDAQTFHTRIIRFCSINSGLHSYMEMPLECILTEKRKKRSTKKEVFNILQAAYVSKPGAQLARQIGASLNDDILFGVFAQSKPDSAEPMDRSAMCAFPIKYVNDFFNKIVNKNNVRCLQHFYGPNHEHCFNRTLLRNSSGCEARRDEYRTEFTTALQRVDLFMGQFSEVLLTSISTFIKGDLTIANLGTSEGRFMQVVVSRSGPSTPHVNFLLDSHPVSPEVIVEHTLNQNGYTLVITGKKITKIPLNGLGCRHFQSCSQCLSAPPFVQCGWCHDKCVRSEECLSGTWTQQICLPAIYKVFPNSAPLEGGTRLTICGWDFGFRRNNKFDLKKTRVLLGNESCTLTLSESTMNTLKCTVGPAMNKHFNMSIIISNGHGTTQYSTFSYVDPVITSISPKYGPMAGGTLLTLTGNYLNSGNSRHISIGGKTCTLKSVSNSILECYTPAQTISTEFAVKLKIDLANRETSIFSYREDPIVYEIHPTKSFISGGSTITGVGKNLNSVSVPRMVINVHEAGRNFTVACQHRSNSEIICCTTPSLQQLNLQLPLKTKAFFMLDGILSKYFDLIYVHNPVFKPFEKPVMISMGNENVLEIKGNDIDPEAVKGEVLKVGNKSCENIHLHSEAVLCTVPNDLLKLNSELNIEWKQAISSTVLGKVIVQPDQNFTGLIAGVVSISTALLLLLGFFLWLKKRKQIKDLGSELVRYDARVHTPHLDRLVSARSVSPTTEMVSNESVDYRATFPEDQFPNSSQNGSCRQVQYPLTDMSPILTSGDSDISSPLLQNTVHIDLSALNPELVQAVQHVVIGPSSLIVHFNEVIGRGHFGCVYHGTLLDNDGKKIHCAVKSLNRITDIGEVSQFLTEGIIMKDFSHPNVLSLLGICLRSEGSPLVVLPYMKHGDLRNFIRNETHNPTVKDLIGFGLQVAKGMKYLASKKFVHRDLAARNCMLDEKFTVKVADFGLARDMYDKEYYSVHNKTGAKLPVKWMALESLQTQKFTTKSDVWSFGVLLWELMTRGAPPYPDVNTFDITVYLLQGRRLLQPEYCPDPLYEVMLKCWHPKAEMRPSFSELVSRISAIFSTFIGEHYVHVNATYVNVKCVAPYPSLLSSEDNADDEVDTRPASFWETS
UniProt Q07954, residues 20-4544: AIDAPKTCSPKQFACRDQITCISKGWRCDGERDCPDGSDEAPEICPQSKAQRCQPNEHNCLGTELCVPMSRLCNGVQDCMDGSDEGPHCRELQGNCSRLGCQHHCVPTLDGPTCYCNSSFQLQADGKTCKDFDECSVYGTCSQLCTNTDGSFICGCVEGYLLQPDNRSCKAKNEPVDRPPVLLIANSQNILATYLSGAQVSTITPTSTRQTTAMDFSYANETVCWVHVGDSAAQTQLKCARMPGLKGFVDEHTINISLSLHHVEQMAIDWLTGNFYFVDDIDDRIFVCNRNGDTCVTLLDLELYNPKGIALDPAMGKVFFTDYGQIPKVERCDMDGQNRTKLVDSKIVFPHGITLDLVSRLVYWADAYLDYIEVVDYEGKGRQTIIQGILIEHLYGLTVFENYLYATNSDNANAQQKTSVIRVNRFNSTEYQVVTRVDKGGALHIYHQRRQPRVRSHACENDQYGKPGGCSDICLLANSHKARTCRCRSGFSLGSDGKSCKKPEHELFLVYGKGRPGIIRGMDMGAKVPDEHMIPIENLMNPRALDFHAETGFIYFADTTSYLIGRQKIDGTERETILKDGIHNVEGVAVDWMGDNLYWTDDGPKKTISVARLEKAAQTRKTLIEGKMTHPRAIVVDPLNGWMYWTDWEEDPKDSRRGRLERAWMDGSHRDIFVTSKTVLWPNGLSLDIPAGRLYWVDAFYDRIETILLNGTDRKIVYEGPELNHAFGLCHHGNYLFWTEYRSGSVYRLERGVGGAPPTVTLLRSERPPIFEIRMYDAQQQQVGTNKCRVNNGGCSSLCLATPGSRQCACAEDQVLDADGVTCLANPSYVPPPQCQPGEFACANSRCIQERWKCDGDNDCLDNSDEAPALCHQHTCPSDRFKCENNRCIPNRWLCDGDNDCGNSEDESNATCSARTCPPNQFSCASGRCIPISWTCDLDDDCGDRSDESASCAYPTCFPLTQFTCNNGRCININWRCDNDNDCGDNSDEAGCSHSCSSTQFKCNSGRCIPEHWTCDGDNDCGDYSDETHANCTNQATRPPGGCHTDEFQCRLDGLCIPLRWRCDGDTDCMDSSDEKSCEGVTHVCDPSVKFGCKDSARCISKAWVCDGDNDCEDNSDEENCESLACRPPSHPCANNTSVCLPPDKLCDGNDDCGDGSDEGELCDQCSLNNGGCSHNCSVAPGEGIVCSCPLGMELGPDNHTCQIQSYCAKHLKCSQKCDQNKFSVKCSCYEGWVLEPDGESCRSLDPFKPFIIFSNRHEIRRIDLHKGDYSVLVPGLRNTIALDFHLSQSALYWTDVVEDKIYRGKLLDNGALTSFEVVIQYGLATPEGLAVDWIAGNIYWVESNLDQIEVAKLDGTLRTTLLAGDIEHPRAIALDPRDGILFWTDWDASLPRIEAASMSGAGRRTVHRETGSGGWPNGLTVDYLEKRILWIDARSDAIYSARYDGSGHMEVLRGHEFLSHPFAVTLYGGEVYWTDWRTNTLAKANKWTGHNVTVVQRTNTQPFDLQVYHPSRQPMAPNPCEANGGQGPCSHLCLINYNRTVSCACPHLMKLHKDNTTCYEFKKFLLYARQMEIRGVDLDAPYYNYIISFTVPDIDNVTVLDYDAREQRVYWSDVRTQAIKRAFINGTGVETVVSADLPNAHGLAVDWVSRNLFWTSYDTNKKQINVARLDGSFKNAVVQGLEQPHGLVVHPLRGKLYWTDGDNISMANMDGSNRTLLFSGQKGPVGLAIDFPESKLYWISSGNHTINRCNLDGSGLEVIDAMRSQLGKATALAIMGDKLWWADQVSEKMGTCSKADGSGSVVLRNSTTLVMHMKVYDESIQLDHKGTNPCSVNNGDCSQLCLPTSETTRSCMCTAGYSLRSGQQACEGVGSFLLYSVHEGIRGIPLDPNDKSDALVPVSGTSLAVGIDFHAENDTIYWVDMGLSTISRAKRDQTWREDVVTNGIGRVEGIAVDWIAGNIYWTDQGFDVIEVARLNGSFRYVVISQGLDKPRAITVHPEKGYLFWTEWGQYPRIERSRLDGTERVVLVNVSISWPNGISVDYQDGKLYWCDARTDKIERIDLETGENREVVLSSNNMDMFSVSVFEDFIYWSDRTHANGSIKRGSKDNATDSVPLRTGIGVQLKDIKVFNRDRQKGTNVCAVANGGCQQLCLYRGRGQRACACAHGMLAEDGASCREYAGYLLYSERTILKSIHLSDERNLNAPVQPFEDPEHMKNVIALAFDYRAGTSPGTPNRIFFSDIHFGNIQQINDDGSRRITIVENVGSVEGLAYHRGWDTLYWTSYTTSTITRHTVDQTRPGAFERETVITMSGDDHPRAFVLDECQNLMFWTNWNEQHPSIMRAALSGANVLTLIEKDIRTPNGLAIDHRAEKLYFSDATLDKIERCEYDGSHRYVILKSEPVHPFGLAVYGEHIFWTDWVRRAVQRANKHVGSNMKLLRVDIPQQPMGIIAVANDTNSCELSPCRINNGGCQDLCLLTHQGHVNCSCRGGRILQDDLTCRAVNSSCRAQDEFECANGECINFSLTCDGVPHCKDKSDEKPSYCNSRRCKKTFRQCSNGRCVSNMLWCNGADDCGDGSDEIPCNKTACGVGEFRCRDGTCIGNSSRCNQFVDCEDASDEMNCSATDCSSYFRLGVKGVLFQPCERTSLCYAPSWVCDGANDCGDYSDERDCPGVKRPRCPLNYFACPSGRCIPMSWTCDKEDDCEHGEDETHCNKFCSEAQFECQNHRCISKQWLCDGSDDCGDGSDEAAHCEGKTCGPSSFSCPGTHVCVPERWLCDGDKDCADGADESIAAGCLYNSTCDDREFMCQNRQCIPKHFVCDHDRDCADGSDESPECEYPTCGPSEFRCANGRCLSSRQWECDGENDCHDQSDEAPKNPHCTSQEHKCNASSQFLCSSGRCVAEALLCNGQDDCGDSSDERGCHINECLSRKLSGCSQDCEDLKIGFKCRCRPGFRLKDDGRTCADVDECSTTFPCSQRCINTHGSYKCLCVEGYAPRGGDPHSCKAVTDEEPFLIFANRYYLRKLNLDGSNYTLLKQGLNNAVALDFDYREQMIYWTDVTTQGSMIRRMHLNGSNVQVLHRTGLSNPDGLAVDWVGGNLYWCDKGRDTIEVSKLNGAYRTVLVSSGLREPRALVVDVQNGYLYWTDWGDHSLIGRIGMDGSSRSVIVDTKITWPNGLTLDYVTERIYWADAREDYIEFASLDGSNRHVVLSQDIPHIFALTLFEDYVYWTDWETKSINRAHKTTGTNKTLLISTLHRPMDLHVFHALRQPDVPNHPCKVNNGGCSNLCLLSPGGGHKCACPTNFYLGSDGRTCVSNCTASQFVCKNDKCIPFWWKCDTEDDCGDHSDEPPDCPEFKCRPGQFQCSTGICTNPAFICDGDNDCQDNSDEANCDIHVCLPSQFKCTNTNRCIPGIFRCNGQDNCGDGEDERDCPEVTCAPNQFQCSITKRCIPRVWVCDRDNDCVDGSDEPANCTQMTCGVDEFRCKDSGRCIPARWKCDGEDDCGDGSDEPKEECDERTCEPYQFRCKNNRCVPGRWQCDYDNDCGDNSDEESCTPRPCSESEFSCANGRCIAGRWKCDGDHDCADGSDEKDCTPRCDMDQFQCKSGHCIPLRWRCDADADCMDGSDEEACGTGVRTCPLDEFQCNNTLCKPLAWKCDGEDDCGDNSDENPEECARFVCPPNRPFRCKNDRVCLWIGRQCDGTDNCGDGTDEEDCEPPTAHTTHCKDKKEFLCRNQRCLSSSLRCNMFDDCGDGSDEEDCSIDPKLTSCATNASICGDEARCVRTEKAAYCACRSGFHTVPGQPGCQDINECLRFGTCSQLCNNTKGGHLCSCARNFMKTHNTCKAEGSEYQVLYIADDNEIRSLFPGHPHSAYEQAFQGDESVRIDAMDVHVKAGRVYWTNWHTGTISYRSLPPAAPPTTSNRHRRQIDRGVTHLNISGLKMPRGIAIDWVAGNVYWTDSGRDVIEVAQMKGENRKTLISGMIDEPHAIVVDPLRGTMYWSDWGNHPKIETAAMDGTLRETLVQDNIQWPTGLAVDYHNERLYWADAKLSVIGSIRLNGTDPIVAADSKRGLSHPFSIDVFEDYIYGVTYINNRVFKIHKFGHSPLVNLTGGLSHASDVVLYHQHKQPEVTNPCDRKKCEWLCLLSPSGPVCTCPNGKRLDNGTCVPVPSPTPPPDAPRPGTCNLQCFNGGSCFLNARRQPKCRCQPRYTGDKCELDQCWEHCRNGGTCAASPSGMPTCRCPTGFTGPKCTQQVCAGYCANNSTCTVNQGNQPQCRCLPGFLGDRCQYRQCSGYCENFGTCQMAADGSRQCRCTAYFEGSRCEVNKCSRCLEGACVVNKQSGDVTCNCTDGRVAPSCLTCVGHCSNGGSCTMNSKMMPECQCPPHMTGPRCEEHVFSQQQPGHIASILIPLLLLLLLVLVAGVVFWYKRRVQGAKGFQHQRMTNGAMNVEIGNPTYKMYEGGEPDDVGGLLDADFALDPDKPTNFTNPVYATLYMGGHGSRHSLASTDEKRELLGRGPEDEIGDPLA

binding [1]	binding [2]	Substance
binds	binds	Low density lipoprotein receptor-Related Protein 1 (from UniProt Q07954 20-4544)
binds		Met (from UniProt P08581 25-1390) (receptor)

— paper PMC7955138
